These results are taken from PMC7819943, “Rice protein-binding microarrays: a tool to detect cis-acting elements near promoter regions in rice”.

This is one part of the list.

This experiment has as its target T1, OsSMF1 (Oryza sativa, UniProt Q6ZLB0 1-436).
T1 sequence: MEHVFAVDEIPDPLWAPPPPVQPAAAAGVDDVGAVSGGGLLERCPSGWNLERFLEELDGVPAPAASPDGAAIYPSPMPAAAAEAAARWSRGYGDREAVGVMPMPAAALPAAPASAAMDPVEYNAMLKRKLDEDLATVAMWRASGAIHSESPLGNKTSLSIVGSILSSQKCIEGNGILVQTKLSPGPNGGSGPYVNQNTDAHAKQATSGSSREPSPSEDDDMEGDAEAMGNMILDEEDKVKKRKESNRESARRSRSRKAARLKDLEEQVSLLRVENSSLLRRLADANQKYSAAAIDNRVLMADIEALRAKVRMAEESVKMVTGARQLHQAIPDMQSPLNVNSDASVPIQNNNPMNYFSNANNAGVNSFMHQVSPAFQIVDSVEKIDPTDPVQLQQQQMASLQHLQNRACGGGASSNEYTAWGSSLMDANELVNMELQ
Description: protein-binding microarray (RPBM); PBS, 2% BSA, 51.3 ng/ul salmon testes DNA, 50 uM zinc acetate, 200 nM TF, 25 C, 1 h; high values mean tight binding. The settings on record: protein: recombinant; tags: N-terminal polyhistidine and DsRed monomer fusion (pET32a); chain copies: 2; label: CyDye5-dUTP incorporated in the synthesized complementary strand; 3' TTTTT single-stranded linker to array surface; dsDNA, one strand shown. The method in brief:
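Transcription factors were made in E. coli BL21-CodonPlus as N-terminal fusions to a polyhistidine tag and DsRed, then purified on Ni–NTA. After primer extension with Cy5-dUTP and blocking with 2% BSA, a custom Agilent array was exposed for 1 h at 25 °C to 200 nM protein in PBS, 2% BSA, salmon testes DNA and 50 µM zinc acetate. Washed arrays were scanned on an Axon 4000B, and the binding signal is per-feature fluorescence intensity in arbitrary units.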
For “ATATTTAACAACGGATCAAATGATAGGAAAATAATTAATACGGAGTCACCTAGTGCAG”, the binding signal was 4700 fluorescence intensity (a.u.).

As for “TGGCCTCTCATCATGTCGTCGACGCCGCCGTCGCCCACCCCGGAGTCACCTAGTGCAG”, the binding signal was 3590 fluorescence intensity (a.u.).

For “GAGGGCGGTTTTGTTGACGCGGCGTCTACGTGGCGGTATTCGGAGTCACCTAGTGCAG”, the binding signal is 25900 fluorescence intensity (a.u.).

Take “ATACCATGTTCACGTCATCATGTTACCATGATACCTCGTGCGGAGTCACCTAGTGCAG”: the binding signal was 9050 fluorescence intensity (a.u.).

As for “GTTTCTTCAGTTGCTGCCGACTGAGATGGAATTTGGCAATCGGAGTCACCTAGTGCAG”, the binding signal is 3720 fluorescence intensity (a.u.).

Regarding “GAGATCGACACGTTGGTCTACGTGCCTATGCATGTGTTCACGGAGTCACCTAGTGCAG”, the binding signal was 4520 fluorescence intensity (a.u.).

Turning to “CGGTTGCATTTCTCGTCACCATATTCAAATTAAGCCCGCCCGGAGTCACCTAGTGCAG”, the binding signal is 3160 fluorescence intensity (a.u.).

For the sequence “ACGAGCCCCACGCCGCCGTGTCCTATCGCCGGCGCCGCATCGGAGTCACCTAGTGCAG”, the binding signal is 3940 fluorescence intensity (a.u.).

Regarding “TGGTCAAGGTCAAGGTCGTCGCTGCCGTGCGGATCCGGCGCGGAGTCACCTAGTGCAG”, the binding signal was 3190 fluorescence intensity (a.u.).

Turning to “CCACTGTCGGTGTCGGCATCGGCGCTGGAGGACCTCGAGCCGGAGTCACCTAGTGCAG”, the binding signal was 3140 fluorescence intensity (a.u.).

In the case of “AACAAATTACAGATTCCACCTATAAACTGCGAGACGGATTCGGAGTCACCTAGTGCAG”, the binding signal is 3310 fluorescence intensity (a.u.).

As for “ACTCGCGCCGCCCTGCCCTGTCGTCCCGCCGCATCACCCGCGGAGTCACCTAGTGCAG”, the binding signal is 3500 fluorescence intensity (a.u.).

Consider “CATTCTCGCGACGACTCGTGCTGACTGCTTCGTCACCAACCGGAGTCACCTAGTGCAG”, for which the binding signal was 7740 fluorescence intensity (a.u.).

Regarding “TTGTGGAGGAAGCAATCAAGCAACGAAGAGATGTACATTTCGGAGTCACCTAGTGCAG”, the binding signal was 12100 fluorescence intensity (a.u.).

With “CAAATATTTATTGTAGCATCACATTGTCAAATCATAGCGTCGGAGTCACCTAGTGCAG”, the binding signal is 3470 fluorescence intensity (a.u.).

For the sequence “ACTTAATTAATTACGTGTTAATGGACTGCTCCGTTTTCCGCGGAGTCACCTAGTGCAG”, the binding signal is 8070 fluorescence intensity (a.u.).

“CGAAATTCTGAACCATGCATGCTGACAGGTTTGGCATGCCCGGAGTCACCTAGTGCAG”: the binding signal was 5100 fluorescence intensity (a.u.).

Take “TTAGTGAACGGTGCAACGCGTCAAGGACGAGTCAACGCGCCGGAGTCACCTAGTGCAG”: the binding signal was 4850 fluorescence intensity (a.u.).

As for “ACCTGCCTGACAACACGTACGTACGTGGAAATCATAAACCCGGAGTCACCTAGTGCAG”, the binding signal was 5910 fluorescence intensity (a.u.).

For “GGTGATTCTATTACTTCTAGGTGACGTATATTTGTCAATGCGGAGTCACCTAGTGCAG”, the binding signal was 4680 fluorescence intensity (a.u.).

For “GCGCATGGCACGCCACGGTGGGCGTCGCCGCGGCCGTGTCCGGAGTCACCTAGTGCAG”, the binding signal is 3380 fluorescence intensity (a.u.).

Consider “TTGATGTGATGGAAAAGCTAGAAGTTTCAAGAGAAAGTTGCGGAGTCACCTAGTGCAG”, for which the binding signal was 25500 fluorescence intensity (a.u.).

“ACCCAGGACCGGACCCAACTCGAATACGGACTCGTGTCACCGGAGTCACCTAGTGCAG”: the binding signal is 3770 fluorescence intensity (a.u.).

“ATTTATCATTATTAACTAATAATAACATTGATGTAATTAACGGAGTCACCTAGTGCAG”: the binding signal is 3400 fluorescence intensity (a.u.).

For the sequence “GGGTGTGTAAGGGTAGGTGGAGGGGTGGGTGATGCGAGATCGGAGTCACCTAGTGCAG”, the binding signal was 6050 fluorescence intensity (a.u.).

Regarding “AGAGAGAGCGTGGGTGGGGTGGGTGCTCTGGGTGACTGGGCGGAGTCACCTAGTGCAG”, the binding signal is 6040 fluorescence intensity (a.u.).

Turning to “GATATGTCCTCCTCCTACGTGGCTATATCCTTATTCTGGTCGGAGTCACCTAGTGCAG”, the binding signal is 9960 fluorescence intensity (a.u.).

“TTTAAAAGCAATTTTCAAACAATGCATCGTAGTTTTGTGACGGAGTCACCTAGTGCAG”: the binding signal was 3530 fluorescence intensity (a.u.).

In the case of “GAAATTGATGTCCAGGGTGGTTCACCAAAGAAGATAGCTGCGGAGTCACCTAGTGCAG”, the binding signal is 3240 fluorescence intensity (a.u.).

In the case of “GTGTGCACGAAACTGCAACCGTGGCATATTGGCATGCAGGCGGAGTCACCTAGTGCAG”, the binding signal was 4070 fluorescence intensity (a.u.).

For the sequence “GCCAGTAGTAGAAGCAGCATCCACGCACGCACCGAACCTTCGGAGTCACCTAGTGCAG”, the binding signal was 4450 fluorescence intensity (a.u.).

For “CTACCCACTCGCGCCGGTCATCGTCATTGTCGCCATGTCCCGGAGTCACCTAGTGCAG”, the binding signal is 5340 fluorescence intensity (a.u.).

For the sequence “TCCATATTTACGTCATCAGGACAGCATTGAAAACTTATTGCGGAGTCACCTAGTGCAG”, the binding signal is 5770 fluorescence intensity (a.u.).

For “GCCTTGCACGTATTCACGTCACGCATAAGCTCGATCGAACCGGAGTCACCTAGTGCAG”, the binding signal is 4510 fluorescence intensity (a.u.).

Take “GTGATACTGAAGCGGTACGTGACGGGACTTGTCTCGGAGGCGGAGTCACCTAGTGCAG”: the binding signal is 3710 fluorescence intensity (a.u.).

On to “TCCTCCGAGACACAATACAAATATATATACAATCACACTCCGGAGTCACCTAGTGCAG”, for which the binding signal is 3950 fluorescence intensity (a.u.).

As for “CGTCCGCCTTGATCGCTATTGACCTAGCAACGCACGCGATCGGAGTCACCTAGTGCAG”, the binding signal was 3430 fluorescence intensity (a.u.).

“GGGCGTGGAAGGGCCAGCACACTGGGACACGTGGACGGCTCGGAGTCACCTAGTGCAG”: the binding signal was 6910 fluorescence intensity (a.u.).

Consider “CGCGATCTCCCGGGGCGCTCCCGTATGCCCTTGCGCTGCTCGGAGTCACCTAGTGCAG”, for which the binding signal was 22100 fluorescence intensity (a.u.).

In the case of “AGAGGATGAAATGATGACGTGGTCACCCTGAGTGTGGGGCCGGAGTCACCTAGTGCAG”, the binding signal is 24000 fluorescence intensity (a.u.).

Turning to “ATGTGGATGAAAGGAACAGAATGTTCGCCCTTCGTCATGACGGAGTCACCTAGTGCAG”, the binding signal is 22800 fluorescence intensity (a.u.).

For “GGGGATCGCGCGAGGACGGGAGGAGTGGTGGCGGTGTGATCGGAGTCACCTAGTGCAG”, the binding signal is 3730 fluorescence intensity (a.u.).
